{
  "source": "the supplement of paper PMC8728848",
  "binders": {"B1": {"name": "Blon2355mut (Bifidobacterium longum) (protein)", "chain": "MVQEPTLEWHVIPEPTNVEPLVGTCSLPLSGTVVEQRGADDAEAVFARQLVDDIKRVCGGRWQVASGEVQREVTLRTSPSLDDWSYVLEVSPDGVVITGSGFEGVRDGVQTLRQIIRQIGLTIPCMVIRDRPAFSTRGYYLDVTRGRVPSMAWLKSWVDRLCFYKYNQFQLYIEHTFQFNGLSEVWRGADPLTSSDILELDSYCAARGIELVPSVSTFGHHYTALRTRQLRDLGEFPEDADRPFSLIERMTHHTLNITDERSYEFSTSLIDELMPLFRSRKFNICANETFDLGKGRSKQESAKRGVGAMYADFVERLCRHVDDRGHDVMVWADVALEHPEIIDTLPKNITWLNWQYEPNVDDGTTAALADAGATQMVCPAVWCWNALIPRIDDAWNNITRMARHGRAHDVSGMLVTDWGDFGHVNDPRMSVPGMIFGAQQSWNPDAELSEVDMLSRISTIEYGDHTGSVVGALRGASAKGGFSWSDLVTYLELDDGRGGCNTEIVRVMGCLEAYRNDLPQSGQARLADARVSMLRTLRDSILAGRELNGKLDDAAKDITQLLRVAGDPSSAAVWSLAIDGQRLLNRVGLALLAAHGVVRQDEAGIDAAKLADELECWTEQYSRLWHEVSRQSELARIQHVVWRAADVLRSI"}},
  "test_in_all_cases": "glycan array binding signal (z-score within array); higher = stronger binding",
  "conditions_in_all_cases": "glycan notation: IUPAC condensed, linker removed",
  "key": {"[1]": {"target": "Fuc(a1-2)[Gal(a1-3)]Gal(b1-4)GlcNAc(b1-2)Man(a1-3)[Fuc(a1-2)[Gal(a1-3)]Gal(b1-4)GlcNAc(b1-2)Man(a1-6)]Man(b1-4)GlcNAc(b1-4)[Fuc(a1-6)]GlcNAc", "in_short": "(§1)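 The binding signal is a Z-score computed within each array and averaged over linkers. Arrays of the same protein sequence at different concentrations or buffers were also averaged together. Data originate from 3228 arrays in the Consortium for Functional Glycomics database, kept only where the protein sequence was available.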"}, "[2]": {"target": "Fuc(a1-2)[Gal(a1-3)]Gal(b1-4)GlcNAc(b1-3)GalNAc", "in_short": "as §1"}, "[3]": {"target": "Fuc(a1-2)[Gal(a1-3)]Gal(b1-4)GlcNAc(b1-6)GalNAc", "in_short": "as §1"}, "[4]": {"target": "Fuc(a1-2)[Gal(a1-3)]Gal(b1-4)[Fuc(a1-3)]Glc", "in_short": "as §1"}, "[5]": {"target": "Fuc(a1-2)[Gal(a1-3)]Gal(b1-4)[Fuc(a1-3)]GlcNAc", "in_short": "as §1"}, "[6]": {"target": "Fuc(a1-2)[Gal(a1-3)]Gal(b1-4)[Fuc(a1-3)]GlcNAc(b1-3)GalNAc", "in_short": "as §1"}, "[7]": {"target": "Fuc(a1-2)[Gal(a1-4)]Gal(b1-4)GlcNAc", "in_short": "as §1"}, "[8]": {"target": "Fuc(a1-2)[GalNAc(a1-3)]Gal", "in_short": "as §1"}, "[9]": {"target": "Fuc(a1-2)[GalNAc(a1-3)]Gal(b1-3)GalNAc(a1-3)[Fuc(a1-2)]Gal(b1-4)GlcNAc", "in_short": "as §1"}, "[10]": {"target": "Fuc(a1-2)[GalNAc(a1-3)]Gal(b1-3)GalNAc(b1-3)Gal(a1-4)Gal(b1-4)Glc", "in_short": "as §1"}, "[11]": {"target": "Fuc(a1-2)[GalNAc(a1-3)]Gal(b1-3)GlcNAc", "in_short": "as §1"}, "[12]": {"target": "Fuc(a1-2)[GalNAc(a1-3)]Gal(b1-3)GlcNAc(b1-2)Man(a1-3)[Fuc(a1-2)[GalNAc(a1-3)]Gal(b1-3)GlcNAc(b1-2)Man(a1-6)]Man(b1-4)GlcNAc(b1-4)GlcNAc", "in_short": "as §1"}, "[13]": {"target": "Fuc(a1-2)[GalNAc(a1-3)]Gal(b1-3)GlcNAc(b1-2)Man(a1-3)[Fuc(a1-2)[GalNAc(a1-3)]Gal(b1-3)GlcNAc(b1-2)Man(a1-6)]Man(b1-4)GlcNAc(b1-4)[Fuc(a1-6)]GlcNAc", "in_short": "as §1"}, "[14]": {"target": "Fuc(a1-2)[GalNAc(a1-3)]Gal(b1-3)GlcNAc(b1-3)GalNAc", "in_short": "as §1"}, "[15]": {"target": "Fuc(a1-2)[GalNAc(a1-3)]Gal(b1-3)GlcNAc(b1-6)GalNAc", "in_short": "as §1"}, "[16]": {"target": "Fuc(a1-2)[GalNAc(a1-3)]Gal(b1-4)Glc", "in_short": "as §1"}, "[17]": {"target": "Fuc(a1-2)[GalNAc(a1-3)]Gal(b1-4)GlcNAc", "in_short": "as §1"}, "[18]": {"target": "Fuc(a1-2)[GalNAc(a1-3)]Gal(b1-4)GlcNAc(b1-2)Man", "in_short": "as §1"}, "[19]": {"target": "Fuc(a1-2)[GalNAc(a1-3)]Gal(b1-4)GlcNAc(b1-2)Man(a1-3)[Fuc(a1-2)[GalNAc(a1-3)]Gal(b1-4)GlcNAc(b1-2)Man(a1-6)]Man(b1-4)GlcNAc(b1-4)GlcNAc", "in_short": "as §1"}, "[20]": {"target": "Fuc(a1-2)[GalNAc(a1-3)]Gal(b1-4)GlcNAc(b1-2)Man(a1-3)[Fuc(a1-2)[GalNAc(a1-3)]Gal(b1-4)GlcNAc(b1-2)Man(a1-6)]Man(b1-4)GlcNAc(b1-4)[Fuc(a1-6)]GlcNAc", "in_short": "as §1"}, "[21]": {"target": "Fuc(a1-2)[GalNAc(a1-3)]Gal(b1-4)GlcNAc(b1-3)Gal(b1-4)GlcNAc", "in_short": "as §1"}, "[22]": {"target": "Fuc(a1-2)[GalNAc(a1-3)]Gal(b1-4)GlcNAc(b1-3)Gal(b1-4)GlcNAc(b1-3)Gal(b1-4)GlcNAc", "in_short": "as §1"}, "[23]": {"target": "Fuc(a1-2)[GalNAc(a1-3)]Gal(b1-4)GlcNAc(b1-3)GalNAc", "in_short": "as §1"}, "[24]": {"target": "Fuc(a1-2)[GalNAc(a1-3)]Gal(b1-4)GlcNAc(b1-3)[Fuc(a1-2)[GalNAc(a1-3)]Gal(b1-4)GlcNAc(b1-6)]GalNAc", "in_short": "as §1"}, "[25]": {"target": "Fuc(a1-2)[GalNAc(a1-3)]Gal(b1-4)GlcNAc(b1-6)GalNAc", "in_short": "as §1"}, "[26]": {"target": "Fuc(a1-2)[GalNAc(a1-3)]Gal(b1-4)[Fuc(a1-3)]GlcNAc", "in_short": "as §1"}, "[27]": {"target": "Fuc(a1-2)[GalNAc(a1-3)]Gal(b1-4)[Fuc(a1-3)]GlcNAc(b1-3)GalNAc", "in_short": "as §1"}, "[28]": {"target": "Fuc(a1-2)[GalNAc(a1-4)]Gal(b1-4)GlcNAc", "in_short": "as §1"}, "[29]": {"target": "Fuc(a1-2)[GalNAc(b1-3)]Gal", "in_short": "as §1"}, "[30]": {"target": "Fuc(a1-3)GlcNAc", "in_short": "as §1"}},
  "note": "This is one part of the list.",
  "data": [
    {"binder": "B1", "values": [
      {"measurement": "glycan array binding signal (z-score)", "setting": "[1]", "result": -1.19},
      {"measurement": "glycan array binding signal (z-score)", "setting": "[2]", "result": 0.081},
      {"measurement": "glycan array binding signal (z-score)", "setting": "[3]", "result": -0.596},
      {"measurement": "glycan array binding signal (z-score)", "setting": "[4]", "result": -1.04},
      {"measurement": "glycan array binding signal (z-score)", "setting": "[5]", "result": 0.299},
      {"measurement": "glycan array binding signal (z-score)", "setting": "[6]", "result": -0.439},
      {"measurement": "glycan array binding signal (z-score)", "setting": "[7]", "result": 1.85},
      {"measurement": "glycan array binding signal (z-score)", "setting": "[8]", "result": -0.845},
      {"measurement": "glycan array binding signal (z-score)", "setting": "[9]", "result": -0.476},
      {"measurement": "glycan array binding signal (z-score)", "setting": "[10]", "result": 0.019},
      {"measurement": "glycan array binding signal (z-score)", "setting": "[11]", "result": -0.528},
      {"measurement": "glycan array binding signal (z-score)", "setting": "[12]", "result": -0.464},
      {"measurement": "glycan array binding signal (z-score)", "setting": "[13]", "result": -0.814},
      {"measurement": "glycan array binding signal (z-score)", "setting": "[14]", "result": -0.537},
      {"measurement": "glycan array binding signal (z-score)", "setting": "[15]", "result": -0.246},
      {"measurement": "glycan array binding signal (z-score)", "setting": "[16]", "result": -0.407},
      {"measurement": "glycan array binding signal (z-score)", "setting": "[17]", "result": -0.374},
      {"measurement": "glycan array binding signal (z-score)", "setting": "[18]", "result": -0.963},
      {"measurement": "glycan array binding signal (z-score)", "setting": "[19]", "result": 0.167},
      {"measurement": "glycan array binding signal (z-score)", "setting": "[20]", "result": 0.709},
      {"measurement": "glycan array binding signal (z-score)", "setting": "[21]", "result": -0.641},
      {"measurement": "glycan array binding signal (z-score)", "setting": "[22]", "result": 0.661},
      {"measurement": "glycan array binding signal (z-score)", "setting": "[23]", "result": -0.358},
      {"measurement": "glycan array binding signal (z-score)", "setting": "[24]", "result": -0.012},
      {"measurement": "glycan array binding signal (z-score)", "setting": "[25]", "result": 0.218},
      {"measurement": "glycan array binding signal (z-score)", "setting": "[26]", "result": -0.853},
      {"measurement": "glycan array binding signal (z-score)", "setting": "[27]", "result": 0.29},
      {"measurement": "glycan array binding signal (z-score)", "setting": "[28]", "result": 0.989},
      {"measurement": "glycan array binding signal (z-score)", "setting": "[29]", "result": 0.146},
      {"measurement": "glycan array binding signal (z-score)", "setting": "[30]", "result": 0.518}
    ]}
  ]
}
